Results taken from publication PMC13244148.
Where two headings read alike, the source gives them in different places. These are yes or no findings as the source states them, for the method shown. Binding seen in cells or lysates may run through a third protein. A yes stands for co-enrichment or nearness to the bait. Other partners may have been found.

Sequences of proteins named here, by UniProt entry; tags and fusion partners are left off. Residues count along the entry.
UniProt P29372, residues 18-298: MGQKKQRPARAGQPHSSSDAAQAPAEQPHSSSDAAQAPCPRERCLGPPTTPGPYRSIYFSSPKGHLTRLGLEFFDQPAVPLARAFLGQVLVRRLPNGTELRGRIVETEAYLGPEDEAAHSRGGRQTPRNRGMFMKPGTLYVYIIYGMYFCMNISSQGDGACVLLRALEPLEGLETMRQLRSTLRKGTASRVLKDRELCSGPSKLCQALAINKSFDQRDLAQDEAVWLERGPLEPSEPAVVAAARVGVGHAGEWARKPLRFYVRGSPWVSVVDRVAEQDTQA
UniProt P27695: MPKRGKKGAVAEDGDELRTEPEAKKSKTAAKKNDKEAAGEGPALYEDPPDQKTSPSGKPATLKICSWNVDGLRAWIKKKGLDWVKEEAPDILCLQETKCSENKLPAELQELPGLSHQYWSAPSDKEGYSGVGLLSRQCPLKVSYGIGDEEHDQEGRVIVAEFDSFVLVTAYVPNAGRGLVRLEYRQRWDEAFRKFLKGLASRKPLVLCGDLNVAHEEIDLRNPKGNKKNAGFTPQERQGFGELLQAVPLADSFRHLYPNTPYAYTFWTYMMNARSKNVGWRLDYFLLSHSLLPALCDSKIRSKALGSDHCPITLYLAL

Legend:
[1] = biological target: His6-Strep-AMP-Rlig1 (human RNA ligase 1, AMPylated) (human) (UniProt Q8N999); assay: affinity purification with mass spectrometry; His6-Strep-Rlig1 variant on Strep-Tactin Superflow beads; RNase If digested lysate of HEK293 Rlig1-KO cells (unstressed, or 40 uM menadione for 1 h), 20 h, 4°C; washing buffer 25 mM Tris pH 7.5, 50 mM NaCl, 1 mM DTT; elution with biotin; label-free DIA MS against an uncharged bead control; only the target purified
[2] = biological target: His6-Strep-AMP-Rlig1 (human RNA ligase 1, AMPylated) (human) (UniProt Q8N999); assay: as above; remark: listed apart in the source
[3] = biological target: His6-Strep-K57A-Rlig1 (human) (UniProt Q8N999); assay: affinity purification with mass spectrometry; as a1, but only the lysate of menadione-treated (40 uM, 1 h) HEK293 Rlig1-KO cells; only the target purified

| binding [1] | binding [2] | binding [3] | Molecule |
| --- | --- | --- | --- |
| binds | – | – | glycosylase MPG (from UniProt P29372 18-298) |
| binds | – | – | endonuclease APE1 (from UniProt P27695 1-318) |
| – | binds | – | CLP1 (protein, UniProt Q92989 1-425) MGEEANDDKKPTTKFELERETELRFEVEASQSVQLELLTGMAEIFGTELTRNKKFTFDAGAKVAVFTWHGCSVQLSGRTEVAYVSKDTPMLLYLNTHTALEQMRRQAEKEEERGPRVMVVGPTDVGKSTVCRLLLNYAVRLGRRPTYVELDVGQGSVSIPGTMGALYIERPADVEEGFSIQAPLVYHFGSTTPGTNIKLYNKITSRLADVFNQRCEVNRRASVSGCVINTCGWVKGSGYQALVHAASAFEVDVVVVLDQERLYNELKRDLPHFVRTVLLPKSGGVVERSKDFRRECRDERIREYFYGFRGCFYPHAFNVKFSDVKIYKVGAPTIPDSCLPLGMSQEDNQLKLVPVTPGRDMVHHLLSVSTAEGTEENLSETSVAGFIVVTSVDLEHQVFTVLSPAPRPLPKNFLLIMDIRFMDLK |
| – | binds | – | ANGEL2 (protein, UniProt Q5VTE6 1-544) MEAWRCVRKGYGHCVVGRGRYPMFPHHSRSLGRDWTTPWENLQRCCWNRHISSCMRWPGHYSRAPYPYFSSRHFSLNWRPPCLFESRTQFQYCNWRPDNLSQTSLIHLSSYVMNAEGDEPSSKRRKHQGVIKRNWEYICSHDKEKTKILGDKNVDPKCEDSENKFDFSVMSYNILSQDLLEDNSHLYRHCRRPVLHWSFRFPNILKEIKHFDADVLCLQEVQEDHYGAEIRPSLESLGYHCEYKMRTGRKPDGCAICFKHSKFSLLSVNPVEFFRPDISLLDRDNVGLVLLLQPKIPYAACPAICVANTHLLYNPRRGDIKLTQLAMLLAEISSVAHQKDGSFCPIVMCGDFNSVPGSPLYSFIKEGKLNYEGLPIGKVSGQEQSSRGQRILSIPIWPPNLGISQNCVYEVQQVPKVEKTDSDLTQTQLKQTEVLVTAEKLSSNLQHHFSLSSVYSHYFPDTGIPEVTTCHSRSAITVDYIFYSAEKEDVAGHPGAEVALVGGLKLLARLSLLTEQDLWTVNGLPNENNSSDHLPLLAKFRLEL |
| – | binds | binds | DIS3, the catalytically active subunit of the exosome complex (protein, UniProt Q9Y2L1 1-958) MLKSKTFLKKTRAGGVMKIVREHYLRDDIGCGAPGCAACGGAHEGPALEPQPQDPASSVCPQPHYLLPDTNVLLHQIDVLEDPAIRNVIVLQTVLQEVRNRSAPVYKRIRDVTNNQEKHFYTFTNEHHRETYVEQEQGENANDRNDRAIRVAAKWYNEHLKKMSADNQLQVIFITNDRRNKEKAIEEGIPAFTCEEYVKSLTANPELIDRLACLSEEGNEIESGKIIFSEHLPLSKLQQGIKSGTYLQGTFRASRENYLEATVWIHGDNEENKEIILQGLKHLNRAVHEDIVAVELLPKSQWVAPSSVVLHDEGQNEEDVEKEEETERMLKTAVSEKMLKPTGRVVGIIKRNWRPYCGMLSKSDIKESRRHLFTPADKRIPRIRIETRQASTLEGRRIIVAIDGWPRNSRYPNGHFVRNLGDVGEKETETEVLLLEHDVPHQPFSQAVLSFLPKMPWSITEKDMKNREDLRHLCICSVDPPGCTDIDDALHCRELENGNLEVGVHIADVSHFIRPGNALDQESARRGTTVYLCEKRIDMVPELLSSNLCSLKCDVDRLAFSCIWEMNHNAEILKTKFTKSVINSKASLTYAEAQLRIDSANMNDDITTSLRGLNKLAKILKKRRIEKGALTLSSPEVRFHMDSETHDPIDLQTKELRETNSMVEEFMLLANISVAKKIHEEFSEHALLRKHPAPPPSNYEILVKAARSRNLEIKTDTAKSLAESLDQAESPTFPYLNTLLRILATRCMMQAVYFCSGMDNDFHHYGLASPIYTHFTSPIRRYADVIVHRLLAVAIGADCTYPELTDKHKLADICKNLNFRHKMAQYAQRASVAFHTQLFFKSKGIVSEEAYILFVRKNAIVVLIPKYGLEGTVFFEEKDKPNPQLIYDDEIPSLKIEDTVFHVFDKVKVKIMLDSSNLQHQKIRMSLVEPQIPGISIPTDTSNMDLNGPKKKKMKLGK |
